Laboratory results taken from the supplement of paper PMC7661543.
The effect of the compound repeats well; differences between the knockouts mostly do not.

Test system: BT-20
Test: relative cell number vs DMSO control (72 h) (% of DMSO); higher = less growth inhibition (more cells)
Method: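 QMAP-Seq: a pool of 5 breast cancer cell lines (ZR-75-1, SKBR3, HCC-38, MDA-MB-231, BT-20), each carrying 12 doxycycline-inducible Cas9 sgRNA perturbations (11 knockouts plus non-targeting sgNT), was treated with compounds for 72 h at four 10-fold doses (10 nM-10 uM or 1 nM-1 uM range). Barcodes were amplified and sequenced, and cell number was interpolated from 293T spike-in standard curves. The result is expressed as % of the median of DMSO wells. Two biological replicates.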

Cn1c(CCCC(=O)O)nc2cc(N(CCCl)CCCl)ccc21 [Bendamustine]
Settings | relative cell number
sgRNA knockout: sgATF3, 10 nM | 101
sgRNA knockout: sgATF3, 100 nM | 99.8
sgRNA knockout: sgATF3, 1000 nM | 99
sgRNA knockout: sgATF3, 10000 nM | 108
sgRNA knockout: sgATF4, 10 nM | 104.8
sgRNA knockout: sgATF4, 100 nM | 109
sgRNA knockout: sgATF4, 1000 nM | 107
sgRNA knockout: sgATF4, 10000 nM | 127
sgRNA knockout: sgATF6, 10 nM | 90.7
sgRNA knockout: sgATF6, 100 nM | 98.7
sgRNA knockout: sgATF6, 1000 nM | 94.2
sgRNA knockout: sgATF6, 10000 nM | 103
sgRNA knockout: sgATG7, 10 nM | 104
sgRNA knockout: sgATG7, 100 nM | 112
sgRNA knockout: sgATG7, 1000 nM | 122
sgRNA knockout: sgATG7, 10000 nM | 123
sgRNA knockout: sgERN1, 10 nM | 91.8
sgRNA knockout: sgERN1, 100 nM | 106
sgRNA knockout: sgERN1, 1000 nM | 92.2
sgRNA knockout: sgERN1, 10000 nM | 113
sgRNA knockout: sgHSF1, 10 nM | 86.1
sgRNA knockout: sgHSF1, 100 nM | 89.8
sgRNA knockout: sgHSF1, 1000 nM | 92.8
sgRNA knockout: sgHSF1, 10000 nM | 96.3
sgRNA knockout: sgHSF2, 10 nM | 106
sgRNA knockout: sgHSF2, 100 nM | 106
sgRNA knockout: sgHSF2, 1000 nM | 106.1
sgRNA knockout: sgHSF2, 10000 nM | 113
sgRNA knockout: sgKEAP1, 10 nM | 94.5
sgRNA knockout: sgKEAP1, 100 nM | 90.3
sgRNA knockout: sgKEAP1, 1000 nM | 101
sgRNA knockout: sgKEAP1, 10000 nM | 97.43
sgRNA knockout: sgNFE2L2, 10 nM | 107
sgRNA knockout: sgNFE2L2, 100 nM | 131
sgRNA knockout: sgNFE2L2, 1000 nM | 122
sgRNA knockout: sgNFE2L2, 10000 nM | 154
sgRNA knockout: sgSLC35F2, 10 nM | 90.9
sgRNA knockout: sgSLC35F2, 100 nM | 115
sgRNA knockout: sgSLC35F2, 1000 nM | 107
sgRNA knockout: sgSLC35F2, 10000 nM | 111
sgRNA knockout: sgXBP1, 10 nM | 107
sgRNA knockout: sgXBP1, 100 nM | 121
sgRNA knockout: sgXBP1, 1000 nM | 120
sgRNA knockout: sgXBP1, 10000 nM | 116

CC[C@]1(O)C[C@H]2CN(CCc3c([nH]c4ccccc34)[C@@](C(=O)OC)(c3cc4c(cc3OC)N(C=O)[C@H]3[C@@](O)(C(=O)OC)[C@H](OC(C)=O)[C@]5(CC)C=CCN6CC[C@]43[C@@H]65)C2)C1 [Vincristine]
Settings | relative cell number
sgRNA knockout: sgATF3, 10 nM | 24.3
sgRNA knockout: sgATF3, 100 nM | 31.7
sgRNA knockout: sgATF3, 1000 nM | 41.6
sgRNA knockout: sgATF3, 10000 nM | 38.2
sgRNA knockout: sgATF4, 10 nM | 30.1
sgRNA knockout: sgATF4, 100 nM | 31.6
sgRNA knockout: sgATF4, 1000 nM | 39.3
sgRNA knockout: sgATF4, 10000 nM | 39.2
sgRNA knockout: sgATF6, 10 nM | 27
sgRNA knockout: sgATF6, 100 nM | 25.9
sgRNA knockout: sgATF6, 1000 nM | 33.8
sgRNA knockout: sgATF6, 10000 nM | 38.3
sgRNA knockout: sgATG7, 10 nM | 20.4
sgRNA knockout: sgATG7, 100 nM | 31.4
sgRNA knockout: sgATG7, 1000 nM | 50.6
sgRNA knockout: sgATG7, 10000 nM | 36.1
sgRNA knockout: sgERN1, 10 nM | 29.7
sgRNA knockout: sgERN1, 100 nM | 26.3
sgRNA knockout: sgERN1, 1000 nM | 37.6
sgRNA knockout: sgERN1, 10000 nM | 41.1
sgRNA knockout: sgHSF1, 10 nM | 25
sgRNA knockout: sgHSF1, 100 nM | 20.5
sgRNA knockout: sgHSF1, 1000 nM | 39.6
sgRNA knockout: sgHSF1, 10000 nM | 37.5
sgRNA knockout: sgHSF2, 10 nM | 30.3
sgRNA knockout: sgHSF2, 100 nM | 24.5
sgRNA knockout: sgHSF2, 1000 nM | 28.6
sgRNA knockout: sgHSF2, 10000 nM | 39.2
sgRNA knockout: sgKEAP1, 10 nM | 36.6
sgRNA knockout: sgKEAP1, 100 nM | 30.4
sgRNA knockout: sgKEAP1, 1000 nM | 33
sgRNA knockout: sgKEAP1, 10000 nM | 43.8
sgRNA knockout: sgNFE2L2, 10 nM | 30.6
sgRNA knockout: sgNFE2L2, 100 nM | 20.8
sgRNA knockout: sgNFE2L2, 1000 nM | 42.8
sgRNA knockout: sgNFE2L2, 10000 nM | 46.6
sgRNA knockout: sgSLC35F2, 10 nM | 27.3
sgRNA knockout: sgSLC35F2, 100 nM | 30.8
sgRNA knockout: sgSLC35F2, 1000 nM | 24.5
sgRNA knockout: sgSLC35F2, 10000 nM | 39.2
sgRNA knockout: sgXBP1, 10 nM | 24.5
sgRNA knockout: sgXBP1, 100 nM | 31.6
sgRNA knockout: sgXBP1, 1000 nM | 44.2
sgRNA knockout: sgXBP1, 10000 nM | 41

COc1cc([C@@H]2c3cc4c(cc3[C@@H](O[C@@H]3O[C@@H]5CO[C@@H](C)O[C@H]5[C@H](O)[C@H]3O)[C@H]3COC(=O)[C@H]23)OCO4)cc(OC)c1O [Etoposide]
Settings | relative cell number
sgRNA knockout: sgATF3, 10 nM | 78.7
sgRNA knockout: sgATF3, 100 nM | 77.9
sgRNA knockout: sgATF3, 1000 nM | 57
sgRNA knockout: sgATF3, 10000 nM | 36
sgRNA knockout: sgATF4, 10 nM | 70.1
sgRNA knockout: sgATF4, 100 nM | 85
sgRNA knockout: sgATF4, 1000 nM | 60.1
sgRNA knockout: sgATF4, 10000 nM | 32.5
sgRNA knockout: sgATF6, 10 nM | 68.7
sgRNA knockout: sgATF6, 100 nM | 85.9
sgRNA knockout: sgATF6, 1000 nM | 56.3
sgRNA knockout: sgATF6, 10000 nM | 26.5
sgRNA knockout: sgATG7, 10 nM | 76.9
sgRNA knockout: sgATG7, 100 nM | 88.6
sgRNA knockout: sgATG7, 1000 nM | 56.8
sgRNA knockout: sgATG7, 10000 nM | 33.3
sgRNA knockout: sgERN1, 10 nM | 67.8
sgRNA knockout: sgERN1, 100 nM | 81.8
sgRNA knockout: sgERN1, 1000 nM | 59
sgRNA knockout: sgERN1, 10000 nM | 31.8
sgRNA knockout: sgHSF1, 10 nM | 62
sgRNA knockout: sgHSF1, 100 nM | 77.7
sgRNA knockout: sgHSF1, 1000 nM | 47
sgRNA knockout: sgHSF1, 10000 nM | 27.9
sgRNA knockout: sgHSF2, 10 nM | 63.9
sgRNA knockout: sgHSF2, 100 nM | 99.8
sgRNA knockout: sgHSF2, 1000 nM | 76.6
sgRNA knockout: sgHSF2, 10000 nM | 44.8
sgRNA knockout: sgKEAP1, 10 nM | 76.4
sgRNA knockout: sgKEAP1, 100 nM | 79.5
sgRNA knockout: sgKEAP1, 1000 nM | 60.7
sgRNA knockout: sgKEAP1, 10000 nM | 38.2
sgRNA knockout: sgNFE2L2, 10 nM | 60.5
sgRNA knockout: sgNFE2L2, 100 nM | 75.3
sgRNA knockout: sgNFE2L2, 1000 nM | 41.9
sgRNA knockout: sgNFE2L2, 10000 nM | 21.2
sgRNA knockout: sgSLC35F2, 10 nM | 83.1
sgRNA knockout: sgSLC35F2, 100 nM | 82.6
sgRNA knockout: sgSLC35F2, 1000 nM | 65.756
sgRNA knockout: sgSLC35F2, 10000 nM | 36.6
sgRNA knockout: sgXBP1, 10 nM | 63.5
sgRNA knockout: sgXBP1, 100 nM | 79.9
sgRNA knockout: sgXBP1, 1000 nM | 53.3
sgRNA knockout: sgXBP1, 10000 nM | 24.4
